# Article PMC12431657, “Discovery and mechanistic insights of dibenzoylmethane as a broad spectrum inhibitor of coronavirus” (PLOS Pathogens, 2025)
# Counter-ions that a name gives are not always drawn. Like-named read-outs stand apart in the source and are kept apart here. Among all 3,300 compounds or so, about 95 (3%) showed an effect of 50% or more. Some of the results follow.
# Test system: HCoV-229E
# Parameters: species or system Huh-7; HTS, protection from HCoV-229E induced cell death, luminescent cell viability (CellCounting-Lite 2.0), inhibition rate
# Conditions: 24 h post infection, 1 h compound pre-incubation, 10 µM, inhibitor
smiles,measurement,setting,value
O=C(O)C(O)c1cccc(O)c1 (stereo not drawn) [3-Hydroxymandelic Acid],229E Inhibition rate,,9%
COc1ccc(C(=O)/C=C/c2ccc(O)cc2)c(O)c1CC=C(C)C [4-Hydroxyderricin],229E Inhibition rate,,3%
CC(C)=CCC/C(C)=C/Cc1cc(-c2coc3cc(O)ccc3c2=O)ccc1O [Corylifol A],229E Inhibition rate,,2%
CC(CC(=O)O)C(=O)O (stereo not drawn) [2-Methylsuccinic acid],229E Inhibition rate,,4.4%
CCCCCCCCCCCCCC(=O)OC[C@@H](O)COP(=O)([O-])OCC[N+](C)(C)C [LysoPC(14:0/0:0)],229E Inhibition rate,,20.5%
C/C=C/C(=O)O [NSC 8751],229E Inhibition rate,,14.2%
COc1ccc(/C=C/c2cc(O)cc(O[C@@H]3O[C@H](CO)[C@@H](O)[C@H](O)[C@H]3O)c2)cc1 [Desoxyrhaponticin],229E Inhibition rate,,0%
NC(Cn1ccc(=O)c(O)c1)C(=O)O (stereo not drawn) [Mimosine],229E Inhibition rate,,7.7%
C[C@@H]1O[C@@H](Oc2c(-c3ccc(O)cc3)oc3cc(O)cc(O)c3c2=O)[C@H](O)[C@H](O)[C@H]1O [Afzelin],229E Inhibition rate,,13.3%
C=C1C(=O)O[C@@H]2C[C@@]3(C)CCCC(=C)[C@@H]3C[C@H]12 [Isoalantolactone],229E Inhibition rate,,20.6%
COC(=O)[C@]12CCC(C)(C)C[C@H]1C1=CC[C@@H]3[C@@]4(C)CCC(=O)C(C)(C)[C@@H]4CC[C@@]3(C)[C@]1(C)CC2 [Methyl oleanonate],229E Inhibition rate,,3.7%
C[N+](C)(C)CCCC(=O)O [(3-Carboxypropyl)trimethylammonium chloride],229E Inhibition rate,,14.3%
CO[C@H]1C[C@H](O[C@H]2CC[C@]3(C)[C@H]4CC[C@]5(C)[C@@H](C6=CC(=O)OC6)CC[C@]5(O)[C@@H]4CC[C@]3(O)C2)O[C@H](C)[C@H]1O [Periplocymarin],229E Inhibition rate,,22%
CCCCCCCC(=O)OCC(COC(=O)CCCCCCC)OC(=O)CCCCCCC [Tricaprilin],229E Inhibition rate,,21.7%
COC(=O)/C=C/c1ccc(O)cc1 [(E)-Methyl 4-coumarate],229E Inhibition rate,"229E Inhibition rate, 24 h",2.9%
CC[C@H](C)[C@H](N)C(=O)O [L-Isoleucine],229E Inhibition rate,,10.2%
COc1ccc2c(c1O)-c1c(OC)c(OC)cc3c1[C@H](C2)N(C)CC3 [Isocorydine],229E Inhibition rate,,23.1%
O=c1[nH]cnc2nc[nH]c12 [Hypoxanthine],229E Inhibition rate,,20.4%
Nc1ncnc2c1ncn2[C@@H]1O[C@H](CO)[C@@H](O)[C@@H]1O [Vidarabine],229E Inhibition rate,,17.7%
C[C@H](CCC(=O)NCC(=O)O)[C@H]1CC[C@H]2[C@@H]3C[C@H](O)[C@@H]4C[C@H](O)CC[C@]4(C)[C@H]3CC[C@]12C [Glycohyodeoxycholic acid],229E Inhibition rate,,0%
CC(=O)OCC1=CO[C@@H](OC(=O)CC(C)C)[C@H]2C1=C[C@H](OC(=O)CC(C)(C)OC(C)=O)[C@]21CO1 [Acevaltrate],229E Inhibition rate,,5.4%
COc1cc(C(=O)O[C@H]2[C@@H]3C=CO[C@@H](O[C@@H]4O[C@H](CO)[C@@H](O)[C@H](O)[C@H]4O)[C@@H]3[C@@]3(CO)O[C@@H]23)ccc1O [Picroside II],229E Inhibition rate,,10.1%
CC(C)(O)CC[C@@H](O)[C@](C)(O)[C@H]1CC=C2C3=C(CC[C@@]21C)[C@@]1(C)C[C@H](O)[C@H](O)C[C@H]1C(=O)C3 [Podecdysone B],229E Inhibition rate,,11.2%
NC(=O)NC(NC(N)=O)C(=O)O [Allantoic acid],229E Inhibition rate,,26.2%
CCCCCCCCCC(=O)N[C@@H](Cc1c[nH]c2ccccc12)C(=O)N[C@H](CC(N)=O)C(=O)N[C@@H](CC(=O)O)C(=O)N[C@@H]1C(=O)NCC(=O)N[C@@H](CCCN)C(=O)N[C@@H](CC(=O)O)C(=O)N[C@H](C)C(=O)N[C@@H](CC(=O)O)C(=O)NCC(=O)N[C@H](CO)C(=O)N[C@@H]([C@H](C)CC(=O)O)C(=O)N[C@@H](CC(=O)c2ccccc2N)C(=O)O[C@@H]1C [Daptomycin],229E Inhibition rate,,23.2%
C[C@H](O)CC(=O)O [(S)-3-Hydroxybutanoic acid],229E Inhibition rate,,16.6%
C[C@@H]1CC[C@@]2(NC1)O[C@H]1C[C@H]3[C@@H]4CC=C5C[C@@H](O)CC[C@]5(C)[C@H]4CC[C@]3(C)[C@H]1[C@@H]2C [Solasodine],229E Inhibition rate,,6.8%
C[C@]12CCC(=O)C=C1CC[C@@H]1[C@@H]2CC[C@@]2(C)[C@H]1CC[C@]2(O)C(=O)CO [Cortodoxone],229E Inhibition rate,,27.9%
Cc1c(N)nc([C@H](CC(N)=O)NC[C@H](N)C(N)=O)nc1C(=O)N[C@H](C(=O)N[C@H](C)[C@@H](O)[C@H](C)C(=O)N[C@H](C(=O)NCCc1nc(-c2nc(C(=O)NCCC[S+](C)C)cs2)cs1)[C@@H](C)O)[C@@H](O[C@@H]1O[C@@H](CO)[C@@H](O)[C@H](O)[C@@H]1O[C@H]1O[C@H](CO)[C@@H](O)[C@H](OC(N)=O)[C@@H]1O)c1cnc[nH]1 [Bleomycin (sulfate)],229E Inhibition rate,,12.9%
CC(C)(O)CCC(=O)[C@](C)(O)C1[C@H](O)C[C@@]2(C)[C@@H]3CC=C4[C@@H](C[C@H](O)[C@@H](O)C4(C)C)[C@]3(C)C(=O)C[C@]12C (stereo partly drawn) [Cucurbitacin IIb],229E Inhibition rate,,13.2%
O=C1CC(C(=O)O)c2c1oc(=O)c1cc(O)c(O)c(O)c21 (stereo not drawn) [Brevifolincarboxylic acid],229E Inhibition rate,,6.4%
Nc1nc(O)c2[nH]nnc2n1 [8-Azaguanine],229E Inhibition rate,,27.3%
C[S@@+]([O-])CCCCN=C=S [(R)-sulforaphane],229E Inhibition rate,,54%
COc1cc(O)cc(/C=C/c2ccc(O)cc2)c1 [Pinostilbene],229E Inhibition rate,,20.3%
C[C@H](CCC(=O)O)[C@H]1CC[C@H]2[C@@H]3[C@H](O)C[C@@H]4CC(=O)CC[C@]4(C)[C@H]3C[C@H](O)[C@]12C [3-Oxocholic acid],229E Inhibition rate,,4.2%
CN[C@H](CC(C)C)C(=O)N[C@H]1C(=O)N[C@@H](CC(N)=O)C(=O)N[C@H]2C(=O)N[C@H]3C(=O)N[C@H](C(=O)N[C@H](C(=O)O)c4cc(O)cc(O)c4-c4cc3ccc4O)[C@H](O)c3ccc(c(Cl)c3)Oc3cc2cc(c3O[C@@H]2O[C@H](CO)[C@@H](O)[C@H](O)[C@H]2O[C@H]2C[C@](C)(N)[C@H](O)[C@H](C)O2)Oc2ccc(cc2Cl)[C@H]1O [Vancomycin (hydrochloride)],229E Inhibition rate,"229E Inhibition rate, 24 h",13.7%

# Sorted by count of non-hydrogen atoms (high to low): part of the list above
smiles,measurement,setting,value
O=C1CC(C(=O)O)c2c1oc(=O)c1cc(O)c(O)c(O)c21 (stereo not drawn) [Brevifolincarboxylic acid],229E Inhibition rate,,6.4%
COC(=O)/C=C/c1ccc(O)cc1 [(E)-Methyl 4-coumarate],229E Inhibition rate,"229E Inhibition rate, 24 h",2.9%
C/C=C/C(=O)O [NSC 8751],229E Inhibition rate,,14.2%
